The other results are listed elsewhere or left out.
Compound: CC1Cc2ccccc2N1C(=O)C1CCCN(C1)C(=O)CCl (mixture of isomers) [TRIM25 ligand 11 (diastereomer mixture)]
Experiment: probe-labelled cysteine peptide fold change vs DMSO (competition) (log2 fold change); higher = less target engagement (more negative = stronger competition)
Conditions: THP-1, incubation time: 4 h
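Further: competitive chemoproteomic profiling in live THP-1 cells with an iodoacetamide desthiobiotin (IA-DTB) probe, comparing probe-labelled peptide intensities in compound-treated cells against DMSO-treated controls.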

| Target | probe-labelled cysteine peptide fold change (10 µM) | probe-labelled cysteine peptide fold change (50 µM) |
| --- | --- | --- |
| DHX58_Q96C10_322_TQILCAER (UniProt Q96C10) | 0.0599 | -0.121 |
| DNAJA2_O60884_280_IGLVEALCGFQFTFK (UniProt O60884) | 0.161 | 0.21 |
| DIS3_Q9Y2L1_799_LLAVAIGADCTYPELTDK (UniProt Q9Y2L1) | 0.0589 | 0.113 |
| DHX15_O43143_190_GVACTQPR (UniProt O43143) | 0.175 | 0.239 |
| DHRS9_Q9BPW9_60_GFHVIAACLTESGSTALK (UniProt Q9BPW9) | 0.105 | 0.197 |
| DHX15_O43143_307_FQIYFDNCPLLTIPGR (UniProt O43143) | 0.253 | 0.215 |
| DIAPH1_O60610_964_LQFSEQVENIKPEIVSVTAACEELRK (UniProt O60610) | 0.114 | 0.136 |
| DIMT1_Q9UNQ2_150_CAILMFQR (UniProt Q9UNQ2) | -0.021 | 0.332 |
| DHX30_Q7L2E3_786_CQSGFAYHLFPR (UniProt Q7L2E3) | 0.0345 | 0.267 |
| DMXL2_Q8TDJ6_2880_NVCLWDTLISPGNSLIHGFTCHDHGATVLQYAPK (UniProt Q8TDJ6) | 0.159 | -0.375 |
| DHX57_Q6P158_881_CVIHPLHSSLSSEEQQAVFVKPPAGVTK (UniProt Q6P158) | 0.177 | -0.299 |
| DIS3_Q9Y2L1_549_IDMVPELLSSNLCSLK (UniProt Q9Y2L1) | 0.161 | 0.289 |
| DNAJA4_Q8WW22_138_CEGVGGK (UniProt Q8WW22) | 0.0667 | 0.0587 |
| DHTKD1_Q96HY7_429_DVIIDLLCYR (UniProt Q96HY7) | 0.00618 | 0.0565 |
| DIP2A_Q14689_934_FLEGTLHPCNVLMCPHTCVTNLPK (UniProt Q14689) | 0.0229 | 0.0575 |
| DNAJB1_P25685_179_VSLEEIYSGCTK (UniProt P25685) | 0.0963 | 0.00761 |
| DNM1L_O00429_431_CVELVHEEMQR (UniProt O00429) | 0.0335 | -0.103 |
| DHX15_O43143_774_IAPQYYDMSNFPQCEAKR (UniProt O43143) | -0.432 | -0.211 |
| DHX37_Q8IY37_1116_ADCHEALLAAWK (UniProt Q8IY37) | -0.0518 | -0.0211 |
| DNAJA4_Q8WW22_272_IQLSEALCGFKK (UniProt Q8WW22) | -0.206 | -0.106 |

| Target | probe-labelled cysteine peptide fold change (10 µM) | probe-labelled cysteine peptide fold change (50 µM) |
| --- | --- | --- |
| DLD_P09622_484_VCHAHPTLSEAFR (UniProt P09622) | 0.111 | -0.123 |
| DNAJC7_Q99615_7_AAAAECDVVMAATEPELLDDQEAK (UniProt Q99615) | 0.137 | -0.195 |
| DHX30_Q7L2E3_1183_GPCGSFDVR (UniProt Q7L2E3) | 0.093 | 0.0215 |
| DIDO1_Q9BTC0_455_CGAQAGIK (UniProt Q9BTC0) | -0.117 | -0.185 |
| DMAC2_Q9NW81_194_GLACLHHLQNLR (UniProt Q9NW81) | -0.157 | -0.162 |
| DIS3_Q9Y2L1_549_RIDMVPELLSSNLCSLK (UniProt Q9Y2L1) | -0.166 | 0.00785 |
| DGLUCY_Q7Z3D6_418_TQIPILTYQGGSVEAAQAFLCK (UniProt Q7Z3D6) | -0.0339 | 0.0164 |
| DHCR24_Q15392_499_LGCQDAFPEVYDK (UniProt Q15392) | -0.0156 | 0.0023 |
| DHX35_Q9H5Z1_233_FRDFFNQNETSDPARDTCVILTVEGR (UniProt Q9H5Z1) | 0.0474 | 0.193 |
| DNAJC13_O75165_1432_ESPLLPAATELAFHTVNCSALNAEELRR (UniProt O75165) | 0.188 | 0.0943 |
| DIS3_Q9Y2L1_483_HLCICSVDPPGCTDIDDALHCR (UniProt Q9Y2L1) | 0.117 | -0.0441 |
| DLGAP4_Q9Y2H0_736_SLPDCTPHPNSISIDAGPR (UniProt Q9Y2H0) | -0.125 | -0.39 |
| DMAP1_Q9NPF5_199_YYHICAK (UniProt Q9NPF5) | -0.00316 | 0.107 |
| DICER1_Q9UPY3_1641_DSEYGCLK (UniProt Q9UPY3) | -0.135 | -0.0335 |
| DHX36_Q9H2U1_135_NTPCSENK (UniProt Q9H2U1) | 0.00484 | -0.186 |
| DHX9_Q08211_415_GATGCGK (UniProt Q08211) | -0.0943 | -0.0219 |
| DHX36_Q9H2U1_611_VQPGHCYHLYNGLR (UniProt Q9H2U1) | 0.145 | 0.0346 |
| DNAJA1_P31689_149+150+153_GAVECCPNCR (UniProt P31689) | 0.0602 | 0.0884 |
| DNAJC7_Q99615_337_RAQCYMDTEQYEEAVR (UniProt Q99615) | -0.0544 | -0.0392 |
